# No constants are given. Whether binding was seen depends on the method and setting. Binding seen in cells or lysates may run through a third protein. A yes stands for co-enrichment or nearness to the bait. Other partners may have been found.
# The chains behind the UniProt entries cited, without tags or fusion partners.
# UniProt F8RG07: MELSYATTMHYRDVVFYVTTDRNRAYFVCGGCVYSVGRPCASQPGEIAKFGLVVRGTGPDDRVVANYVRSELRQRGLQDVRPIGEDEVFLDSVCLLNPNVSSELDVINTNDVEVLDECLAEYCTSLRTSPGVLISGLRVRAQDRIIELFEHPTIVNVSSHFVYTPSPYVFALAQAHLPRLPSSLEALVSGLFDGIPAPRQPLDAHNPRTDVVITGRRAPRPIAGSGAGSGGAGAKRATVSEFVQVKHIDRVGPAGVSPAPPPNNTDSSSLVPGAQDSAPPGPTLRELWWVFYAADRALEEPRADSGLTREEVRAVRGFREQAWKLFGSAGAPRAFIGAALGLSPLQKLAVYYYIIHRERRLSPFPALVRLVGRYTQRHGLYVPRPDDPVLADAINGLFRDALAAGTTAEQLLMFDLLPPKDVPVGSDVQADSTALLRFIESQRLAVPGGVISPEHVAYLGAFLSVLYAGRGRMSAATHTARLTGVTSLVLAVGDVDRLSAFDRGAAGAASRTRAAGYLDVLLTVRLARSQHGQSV
# B1: ceramide-transport protein CERT, endogenous (protein, UniProt Q9Y5P4 1-624)
# chain: MSDNQSWNSSGSEEDPETESGPPVERCGVLSKWTNYIHGWQDRWVVLKNNALSYYKSEDETEYGCRGSICLSKAVITPHDFDECRFDISVNDSVWYLRAQDPDHRQQWIDAIEQHKTESGYGSESSLRRHGSMVSLVSGASGYSATSTSSFKKGHSLREKLAEMETFRDILCRQVDTLQKYFDACADAVSKDELQRDKVVEDDEDDFPTTRSDGDFLHSTNGNKEKLFPHVTPKGINGIDFKGEAITFKATTAGILATLSHCIELMVKREDSWQKRLDKETEKKRRTEEAYKNAMTELKKKSHFGGPDYEEGPNSLINEEEFFDAVEAALDRQDKIEEQSQSEKVRLHWPTSLPSGDAFSSVGTHRFVQKPYSRSSSMSSIDLVSASDDVHRFSSQVEEMVQNHMTYSLQDVGGDANWQLVVEEGEMKVYRREVEENGIVLDPLKATHAVKGVTGHEVCNYFWNVDVRNDWETTIENFHVVETLADNAIIIYQTHKRVWPASQRDVLYLSVIRKIPALTENDPETWIVCNFSVDHDSAPLNNRCVRAKINVAMICQTLVSPPEGNQEISRDNILCKITYVANVNPGGWAPASVLRAVAKREYPKFLKRFTSYVQEKTAGKPILF
# Target: C-terminally GFP-tagged pUL21 (pUL21-GFP), wild type (HSV-1 strain KOS) (UniProt F8RG07)
# Assay: affinity purification with mass spectrometry; SILAC-labelled HEK293T cells transfected with pUL21-GFP or GFP alone, lysed 24 h post-transfection (10 mM Tris pH 7.5, 150 mM NaCl, 0.5 mM EDTA, 0.5% NP-40), GFP-TRAP beads, quantitative mass spectrometry, three biological replicates
binder,measurement,value
B1,binding,binds

# Reference: article PMC8389370
